# From PubChem BioAssay AID226 (DTP/NCI, 2004)
# The list is a part of this screen's results and no random one: it is rich in T/C values a quarter to a half above the control, in often repeated tests (any T/C) and in doses without a T/C. Other doses and runs of a compound stand elsewhere. T/C is the treated group as % of the vehicle group. Some doses have a count of surviving animals in place of a T/C: the source holds a T/C of zero for them, seemingly a mark for toxic or unscored doses. Some doses without a T/C left all or most animals alive at the check, yet need not have been tolerated: the source hardly ever lists a survival T/C far under the control, and the zero likely stands for such cases as well. Counts of survivors are from the toxicity check (mostly the fifth day) where no day follows; animals may have died later. Schedule codes are those of the source, read here as Q, the interval in days (D) or hours (H), X, the number of doses. Additions like (4×) say how often a value occurs here. Some entries hold several experiments; the values are given in rising order. For survival time, this PubChem deposit counts one and a half times the control or more as active, and values a quarter to a half above the control carry no call in these data; other NCI protocols may use other cut-offs. Some T/C values carry the count of animals alive at the toxicity check (mostly the fifth day); without a count, all were alive then.
# System: B6C3F1 mice, intracerebral ependymoblastoma, median survival T/C
# Experiment: NCI In Vivo Anticancer Drug Screen. Data for tumor model Ependymoblastoma (intracerebral) in B6C3F1 mice
# Settings: T/C endpoint: median survival time, higher T/C = longer survival
# Method: The antitumor activity of compounds was measured in mice bearing transplantable tumors. Survival or tumor size were measured and the results are expressed as the measurement made in the treated group (T) divided by the measurement made in the vehicle treated control group (C). The tumor model used in this assay is Ependymoblastoma (intracerebral) in B6C3F1 mice
# [1] = dose: 16.0 mg/kg/injection, schedule: Q01DX005 (ip), vehicle: saline
# [2] = dose: 6.25 mg/kg/injection, schedule: Q01DX009 (ip), vehicle: clinical formulation
# [3] = dose: 100.0 mg/kg/injection, schedule: Q01DX005 (ip), vehicle: saline with Tween-80
# [4] = dose: 200.0 mg/kg/injection, schedule: Q01DX009 (ip), vehicle: saline with Tween-80
smiles,measurement,setting,value
O=CC(NC(=O)N(CCCl)N=O)C(O)C(O)C(O)CO (stereo not given),T/C,"dose: 0.25 mg/kg/injection, schedule: Q01DX005 (ip), vehicle: saline, evaluated on day 45",91 and 100 % of control
same,T/C,"dose: 0.25 mg/kg/injection, schedule: Q01DX005 (ip), vehicle: saline, evaluated on day 60","93, 97, 112 % of control"
same,T/C,"dose: 0.5 mg/kg/injection, schedule: Q01DX005 (ip), vehicle: saline, evaluated on day 45",93 and 101 % of control
same,T/C,"dose: 0.5 mg/kg/injection, schedule: Q01DX005 (ip), vehicle: saline, evaluated on day 60","100 [9 of 10 alive], 103, 129 % of control"
same,T/C,"dose: 1.0 mg/kg/injection, schedule: Q01DX005 (ip), vehicle: saline, evaluated on day 45",93 % of control (2×)
same,T/C,"dose: 1.0 mg/kg/injection, schedule: Q01DX005 (ip), vehicle: saline, evaluated on day 60",97 and 107 % of control [9 of 10 alive]
same,survivor count,"dose: 1.0 mg/kg/injection, schedule: Q01DX005 (ip), vehicle: saline",10 of 10
same,T/C,"dose: 1.0 mg/kg/injection, schedule: Q01DX009 (ip), vehicle: saline",141 % of control
same,T/C,"dose: 2.0 mg/kg/injection, schedule: Q01DX005 (ip), vehicle: saline, evaluated on day 45",100 and 118 % of control
same,T/C,"dose: 2.0 mg/kg/injection, schedule: Q01DX005 (ip), vehicle: saline, evaluated on day 60","100, 101, 109 % of control"
same,T/C,"dose: 2.0 mg/kg/injection, schedule: Q01DX009 (ip), vehicle: saline",143 % of control
same,T/C,"dose: 4.0 mg/kg/injection, schedule: Q01DX005 (ip), vehicle: Klucel (hydroxypropylcellulose) (HPC)",131 % of control [9 of 10 alive]
same,T/C,"dose: 4.0 mg/kg/injection, schedule: Q01DX005 (ip), vehicle: saline, evaluated on day 45",113 and 128 % of control
same,T/C,"dose: 4.0 mg/kg/injection, schedule: Q01DX005 (ip), vehicle: saline, evaluated on day 60","106, 113, 129 % of control"
same,T/C,"dose: 8.0 mg/kg/injection, schedule: Q01DX005 (ip), vehicle: Klucel (hydroxypropylcellulose) (HPC)",128 % of control [9 of 10 alive]
same,T/C,"dose: 8.0 mg/kg/injection, schedule: Q01DX005 (ip), vehicle: saline, evaluated on day 45",122 % of control
same,T/C,"dose: 8.0 mg/kg/injection, schedule: Q01DX005 (ip), vehicle: saline, evaluated on day 60","123, 129, 134 % of control"
same,survivor count,"dose: 8.0 mg/kg/injection, schedule: Q01DX005 (ip), vehicle: saline",10 of 10
same,survivor count,"dose: 8.0 mg/kg/injection, schedule: Q01DX009 (ip), vehicle: saline",10 of 10
same,T/C,"dose: 12.5 mg/kg/injection, schedule: Q01DX001 (ip), vehicle: saline",140 % of control
same,T/C,"dose: 16.0 mg/kg/injection, schedule: Q01DX005 (ip), vehicle: Klucel (hydroxypropylcellulose) (HPC)",144 % of control
same,T/C,[1],130 % of control
same,survivor count,[1],10 of 10 (2×)
same,survivor count,"dose: 16.0 mg/kg/injection, schedule: Q01DX009 (ip), vehicle: saline",10 of 10
same,survivor count,"dose: 32.0 mg/kg/injection, schedule: Q01DX009 (ip), vehicle: saline",8 of 10
same,survivor count,"dose: 50.0 mg/kg/injection, schedule: Q01DX001 (ip), vehicle: saline",10 of 10
CC(=O)OCC1OC(n2ccc(N)nc2=O)C(OC(C)=O)C1OC(C)=O (stereo not given),survivor count,"dose: 400.0 mg/kg/injection, schedule: Q01DX005 (ip), vehicle: Klucel (hydroxypropylcellulose) (HPC)",10 of 10
same,survivor count,"dose: 800.0 mg/kg/injection, schedule: Q01DX005 (ip), vehicle: Klucel (hydroxypropylcellulose) (HPC)",10 of 10
CC([NH-])C[NH-].[Cl][Pt+2][Cl] (stereo not given),survivor count,"dose: 4.0 mg/kg/injection, schedule: Q01DX005 (ip), vehicle: dextrose",10 of 10
same,survivor count,"dose: 8.0 mg/kg/injection, schedule: Q01DX005 (ip), vehicle: dextrose",10 of 10
same,survivor count,"dose: 16.0 mg/kg/injection, schedule: Q01DX005 (ip), vehicle: dextrose",9 of 10
same,survivor count,"dose: 32.0 mg/kg/injection, schedule: Q01DX005 (ip), vehicle: dextrose",1 of 10
ClC1=C(Cl)C2(Cl)C3C(Cl)C(Cl)CC3C1(Cl)C2(Cl)Cl (stereo not given),survivor count,"dose: 100.0 mg/kg/injection, schedule: Q01DX005 (ip), vehicle: other",0 of 10
CN(Cc1cnc2nc(N)nc(N)c2n1)c1ccc(C(=O)N[C@@H](CCC(=O)O)C(=O)O)cc1,survivor count,"dose: 32.0 mg/kg/injection, schedule: Q04DX003 (ip), vehicle: saline with Tween-80",10 of 10
same,survivor count,"dose: 64.0 mg/kg/injection, schedule: Q01DX009 (ip), vehicle: saline with Tween-80",9 of 10
same,survivor count,"dose: 64.0 mg/kg/injection, schedule: Q04DX003 (ip), vehicle: saline with Tween-80",8 of 10
same,survivor count,"dose: 128.0 mg/kg/injection, schedule: Q01DX009 (ip), vehicle: saline with Tween-80",10 of 10
same,survivor count,"dose: 128.0 mg/kg/injection, schedule: Q04DX003 (ip), vehicle: saline with Tween-80",8 of 10
same,survivor count,"dose: 256.0 mg/kg/injection, schedule: Q01DX009 (ip), vehicle: saline with Tween-80",9 of 10
same,survivor count,"dose: 256.0 mg/kg/injection, schedule: Q04DX003 (ip), vehicle: saline with Tween-80",2 of 10
same,survivor count,"dose: 512.0 mg/kg/injection, schedule: Q01DX009 (ip), vehicle: saline with Tween-80",5 of 10
same,survivor count,"dose: 512.0 mg/kg/injection, schedule: Q04DX003 (ip), vehicle: saline with Tween-80",1 of 10
same,survivor count,"dose: 1024.0 mg/kg/injection, schedule: Q01DX009 (ip), vehicle: saline with Tween-80",2 of 10
same,survivor count,"dose: 1024.0 mg/kg/injection, schedule: Q04DX003 (ip), vehicle: saline with Tween-80",0 of 10
CO[C@H]1C[C@@H]2CC[C@@H](C)[C@@](O)(O2)C(=O)C(=O)N2CCCC[C@H]2C(=O)O[C@H]([C@H](C)C[C@@H]2CC[C@@H](O)[C@H](OC)C2)CC(=O)[C@H](C)C=C(C)[C@@H](O)[C@@H](OC)C(=O)[C@H](C)C[C@H](C)/C=C/C=C/C=C1C,T/C,"dose: 3.12 mg/kg/injection, schedule: Q01DX009 (ip), vehicle: clinical formulation",138 % of control
same,T/C,"dose: 3.12 mg/kg/injection, schedule: Q01DX009 (ip), vehicle: saline with Tween-80",130 and 132 % of control
same,T/C,[2],130 % of control
same,survivor count,[2],10 of 10
same,T/C,"dose: 6.25 mg/kg/injection, schedule: Q01DX009 (ip), vehicle: saline with Tween-80",137 and 144 % of control [9 of 10 alive]
same,T/C,"dose: 12.5 mg/kg/injection, schedule: Q01DX005 (ip), vehicle: saline with Tween-80","112 [9 of 10 alive], 136, 137, 141 % of control"
same,T/C,"dose: 12.5 mg/kg/injection, schedule: Q01DX009 (ip), vehicle: clinical formulation",128 [9 of 10 alive] and 133 % of control
same,T/C,"dose: 12.5 mg/kg/injection, schedule: Q01DX009 (ip), vehicle: saline with Tween-80","94, 146, 150, 178 % of control"
same,T/C,"dose: 25.0 mg/kg/injection, schedule: Q01DX005 (ip), vehicle: saline with Tween-80","134, 140, 150, 219 % of control"
same,T/C,"dose: 25.0 mg/kg/injection, schedule: Q01DX009 (ip), vehicle: clinical formulation",146 % of control
same,T/C,"dose: 25.0 mg/kg/injection, schedule: Q01DX009 (ip), vehicle: saline with Tween-80","136, 187, 189, 201 % of control"
same,T/C,"dose: 50.0 mg/kg/injection, schedule: Q01DX005 (ip), vehicle: saline with Tween-80","92, 125, 149, 186 % of control"
same,T/C,"dose: 50.0 mg/kg/injection, schedule: Q01DX009 (ip), vehicle: saline with Tween-80","89, 138, 187 [9 of 10 alive], 211 % of control"
same,T/C,[3],"127, 152 [7 of 10 alive], 195 % of control"
same,survivor count,[3],10 of 10
same,T/C,"dose: 100.0 mg/kg/injection, schedule: Q01DX009 (ip), vehicle: saline with Tween-80","143, 150, 178, 214 % of control"
same,survivor count,"dose: 200.0 mg/kg/injection, schedule: Q01DX009 (ip), vehicle: clinical formulation",6 of 10 and 7 of 10
same,survivor count,"dose: 200.0 mg/kg/injection, schedule: Q01DX009 (ip), vehicle: gum acacia",10 of 10
same,T/C,[4],"100, 162, 243 % of control"
same,survivor count,[4],10 of 10
same,survivor count,"dose: 400.0 mg/kg/injection, schedule: Q01DX009 (ip), vehicle: saline with Tween-80",10 of 10
